{
  "source": "patent US20200239573A1",
  "about": "(CRESCENDO BIOLOGICS, published 2020)",
  "binders": {"B1": {"name": "Humabody® 1.1 (VHH)", "VHH": "QVQLVESGGGLVKPGGSLRLSCAASGFTFSDYTMTWMRQAPGKGLEWVSYISTGGTIKYYTDSVKGRFTISRDNAKNSLYLQMNSLRADDTAVYYCAREAPLRLGESPHDAFDIWGQGTMVTVSS", "notes": "human VH single domain antibody; also called VH single domain antibody 1.1; clone 1.1"}, "B2": {"name": "Humabody® 1.57 (VHH)", "VHH": "B1 VHH with Y32N, T33S, T53S, T56G, I57V, K58I, Y59F, T61A, W115S", "notes": "human VH single domain antibody"}, "B3": {"name": "Humabody® 1.92 (VHH)", "VHH": "B1 VHH with Q1E, Y32E, T33S, T53S, T56G, I57V, Y59F, T61A, D89E, W115S", "notes": "as for B2"}, "B4": {"name": "1.57-4GS-1.57 (other)", "chain": "QVQLVESGGGLVKPGGSLRLSCAASGFTFSDNSMTWMRQAPGKGLEWVSYISSGGGVIFYADSVKGRFTISRDNAKNSLYLQMNSLRADDTAVYYCAREAPLRLGESPHDAFDISGQGTMVTVSSGGGGSGGGGSGGGGSGGGGSQVQLVESGGGLVKPGGSLRLSCAASGFTFSDNSMTWMRQAPGKGLEWVSYISSGGGVIFYADSVKGRFTISRDNAKNSLYLQMNSLRADDTAVYYCAREAPLRLGESPHDAFDISGQGTMVTVSS", "notes": "bivalent construct of two VH domains in one chain"}},
  "note": "Residue numbers refer to the chain shown, from its start. These are yes or no findings as the source states them, for the method shown. Some results given as binding are weak or reduced against the parent protein; the word gives no strength.",
  "data": [
    {"biological_target": "T1, cynomolgus PD-1 recombinant protein (cynomolgus, UniProt B0LAJ3 25-170)", "T1 construct": "Detected with anti human-Fc cryptate, so probably Fc tagged; also called cyno PD-1; cynomolgus PD-1 (Acro Biosystems cat no. PD-1-05254); not shown: The vendor's carrier tag; It is probably a human Fc, since detection used anti human-Fc cryptate", "test": "HTRF binding", "values": [
      {"binder": "B1", "binding": "binds"},
      {"binder": "B2", "binding": "binds"},
      {"binder": "B3", "binding": "binds"},
      {"binder": "B4", "binding": "binds"}
    ]}
  ]
}
